Test results: patent US4001199 (dated 1977)
Square brackets hold non-standard residues; d marks the D form. Ends that are not written are not given here. * marks the point of attachment. Arg(NO2) = N=C(NCCC[C@H](N)C(=O)O)N[N+](=O)[O-]; Cbz = O=C(OCc1ccccc1)*; OBn = c1ccc(CO*)cc1; GABA = NCCCC(=O)O; OtBu = CC(C)(C)O*; βAla = NCCC(=O)O; Sar = CNCC(=O)O

experiment: peptide synthesis; settings: coupling step, acetate

First: Cbz-F[Arg(NO2)]GFF-NH2
Second: Cbz-G[Arg(NO2)]GFF-NH2
The step yield of the first is higher: 92% for the first, 77% for the second.

Going from Cbz-L[Arg(NO2)]GFFY-NH2 to Cbz-L[Arg(NO2)]PFFY-NH2, the step yield rises from 70.9% to 86.5%.

First: Cbz-[Arg(NO2)]GFF-NH2
Second: Cbz-[Arg(NO2)]GFFY-NH2
The step yield of the first is lower: 72.7% for the first, 91.8% for the second.

Compared with Cbz-[Arg(NO2)]PFFY-NH2, Cbz-[Arg(NO2)][Arg(NO2)]GFF-NH2 is lower in step yield: 95.6% for the first, 89% for the second.

First: Cbz-[Arg(NO2)][Sar]FFY-NH2
Second: Cbz-[Arg(NO2)][βAla]FFY-NH2
The step yield of the first is higher: 77.2% for the first, 74.9% for the second.

Going from Cbz-[Sar]FFY-NH2 to Cbz-[dA][Arg(NO2)]GFF-NH2, the step yield rises from 83.8% to 92%.

First: Di-Z-(α,γ-Dab-Arg(NO2 )-Gly-Phe-Phe-NH2
Second: Z-Arg(NO2)-Gly-Phe-Phe-Tyr-Thr-Pro-Lys(BOC)-Ala-O^t Bu
The step yield of the first is lower: 78% for the first, 88% for the second.

Compared with “Z-Gly-Arg-Pro-Phe-Phe-Tyr-NH2 p-toluenesulfonate”, “Z-Phe-Phe-Tyr-Thr-Pro-Lys(BOC)-Ala-O^t Bu” is higher in step yield: 89.5% for the first, 100% for the second.

Going from Z-Phe-Phe-Tyr-Thr-Pro-O^t Bu to Z-Thr-Pro-Lys(BOC)-Ala-O^t Bu, the step yield rises from 89.8% to 93%.

Compared with Z-β-Ala-Phe-Phe-Tyr-NH2, Z-δ-Aval-Arg(NO2)-Gly-Phe-Phe-NH2 is lower in step yield: 88.0% for the first, 70% for the second.

First: Z-ε-Acap-Arg(NO2)-Gly-Phe-Phe-NH2
Second: Z-ε-Acap-Arg(NO2)-Gly-Phe-Phe-Tyr-NH2
The step yield of the first is lower: 55% for the first, 57% for the second.

First: Z-ε-Acap-Arg-Pro-Phe-Phe-Tyr-NH2
Second: di-Z-Lys-Arg(NO2)-Gly-Phe-Phe-Tyr-NH2
The step yield of the first is higher: 79.1% for the first, 58% for the second.

Going from “di-Z-α,γ-Dab-Arg(NO2)-Gly-Phe-Phe-Tyr-NH2” to diZ-Lys-Arg(NO2)-Gly-Phe-Phe-NH2, the step yield rises from 51% to 77%.

Compared with {Cbz-GABA}-[Arg(NO2)]GFF-NH2, {Cbz-GABA}-[Arg(NO2)]GFFY-NH2 is lower in step yield: 65% for the first, 58% for the second.

Going from {Cbz-βAla}-[Arg(NO2)]GFF-NH2 to {Cbz-βAla}-[Arg(NO2)]GFFY-NH2, the step yield falls from 83.3% to 62%.

Compared with {Cbz-βAla}-[Arg(NO2)]GFFY-OEt, {Cbz-βAla}-[Arg(NO2)]GFFYL-OBn is higher in step yield: 82% for the first, 87.9% for the second.

Going from {Cbz-βAla}-[Arg(NO2)]GFFYTP-OtBu to {Cbz-βAla}-[Arg(NO2)]PFFY-NH2, the step yield rises from 67.4% to 80.9%.

First: {Cbz-βAla}-[Arg(NO2)][Sar]FFY-NH2
Second: {Cbz-βAla}-[Arg(NO2)][βAla]FFY-NH2
The step yield of the first is higher: 76.5% for the first, 73% for the second.

same assay, conditions: late stage modification step, acetate

Going from Arg-Arg-Gly-Phe-Phe-NH2 to Arg-Gly-Phe-Phe-Tyr-NH2, the step yield rises from 45% to 72.5%.

First: Arg-Pro-Phe-Phe-Tyr-NH2
Second: GRPFFY-NH2
The step yield of the first is lower: 52.3% for the first, 63.6% for the second.

Going from Gly-Arg-Gly-Phe-Phe-NH2 to KRGFFY-NH2, the step yield falls from 65% to 50%.

Going from LRGFFY-NH2 to LRPFFY-NH2, the step yield rises from 55.5% to 63.6%.

Going from Lys-Arg-Gly-Phe-Phe-NH2 to [GABA]RGFF-NH2, the step yield rises from 52% to 63%.

First: [GABA]RGFFY-NH2
Second: [dA]RGFF-NH2
The step yield of the first is lower: 52% for the first, 73% for the second.

First: [βAla]RFFFY-NH2
Second: [βAla]RGFFY-NH2
The step yield of the first is lower: 64% for the first, 75% for the second.

Going from [βAla]RGFFYL-OH to [βAla]RPFFY-NH2, the step yield rises from 64.2% to 65.7%.

Compared with [βAla]R[Sar]FFY-NH2, [βAla]R[βAla]FFY-NH2 is lower in step yield: 70.4% for the first, 69.1% for the second.

Compared with {Cbz-βAla}-[Arg(NO2)]GFFY-OH, α,γ-Dab-Arg-Gly-Phe-Phe-NH2 is lower in step yield: 98% for the first, 46% for the second.

First: α,γ-Dab-Arg-Gly-Phe-Phe-Tyr-NH2
Second: β -Ala-Arg-Gly-Phe-Phe-NH2
The step yield of the first is lower: 43% for the first, 66% for the second.

Compared with δ-Aval-Arg-Gly-Phe-Phe-NH2, ε-Acap-Arg-Gly-Phe-Phe-NH2 is lower in step yield: 61% for the first, 51% for the second.

ε-Acap-Arg-Gly-Phe-Phe-Tyr-NH2 gave a step yield of 62%.
